The source of these data is the supplement of paper PMC12819154, “High-throughput peptide-centric local stability assay extends protein–ligand identification to membrane proteins, tissues and bacteria” (Nature Structural & Molecular Biology, 2025).

Amino acid sequences for entries named in this document (tags omitted). A change or cut given only in a name is not applied to a line headed by its entry.
UniProt P09543: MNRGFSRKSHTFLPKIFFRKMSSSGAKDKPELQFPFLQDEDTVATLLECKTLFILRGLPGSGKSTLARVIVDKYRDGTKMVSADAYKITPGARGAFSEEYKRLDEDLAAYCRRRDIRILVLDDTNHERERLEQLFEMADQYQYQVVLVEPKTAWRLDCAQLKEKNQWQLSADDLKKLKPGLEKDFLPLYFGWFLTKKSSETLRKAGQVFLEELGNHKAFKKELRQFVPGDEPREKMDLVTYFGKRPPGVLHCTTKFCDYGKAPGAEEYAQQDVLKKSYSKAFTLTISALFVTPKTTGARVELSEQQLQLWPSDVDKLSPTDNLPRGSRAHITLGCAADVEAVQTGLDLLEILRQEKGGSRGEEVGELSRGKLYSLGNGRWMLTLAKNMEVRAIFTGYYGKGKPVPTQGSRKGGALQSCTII
UniProt P0C7P4: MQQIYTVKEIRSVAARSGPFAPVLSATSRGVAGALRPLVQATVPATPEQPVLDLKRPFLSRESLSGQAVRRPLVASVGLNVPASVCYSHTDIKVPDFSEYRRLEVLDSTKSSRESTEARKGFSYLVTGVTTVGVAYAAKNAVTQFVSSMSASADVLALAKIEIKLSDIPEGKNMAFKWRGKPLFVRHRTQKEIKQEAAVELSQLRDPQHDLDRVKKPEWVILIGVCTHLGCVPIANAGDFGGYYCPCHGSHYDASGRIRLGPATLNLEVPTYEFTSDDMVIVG
UniProt P10646, whole entry: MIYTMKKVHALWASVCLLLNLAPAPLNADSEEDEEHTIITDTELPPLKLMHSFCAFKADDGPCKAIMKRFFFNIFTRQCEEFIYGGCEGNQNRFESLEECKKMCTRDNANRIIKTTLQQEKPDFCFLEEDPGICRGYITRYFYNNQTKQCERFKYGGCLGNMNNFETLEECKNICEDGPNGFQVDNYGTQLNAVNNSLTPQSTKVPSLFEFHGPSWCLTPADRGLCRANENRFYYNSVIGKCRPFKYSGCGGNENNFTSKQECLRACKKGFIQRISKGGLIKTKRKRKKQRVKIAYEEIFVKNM
UniProt P07738: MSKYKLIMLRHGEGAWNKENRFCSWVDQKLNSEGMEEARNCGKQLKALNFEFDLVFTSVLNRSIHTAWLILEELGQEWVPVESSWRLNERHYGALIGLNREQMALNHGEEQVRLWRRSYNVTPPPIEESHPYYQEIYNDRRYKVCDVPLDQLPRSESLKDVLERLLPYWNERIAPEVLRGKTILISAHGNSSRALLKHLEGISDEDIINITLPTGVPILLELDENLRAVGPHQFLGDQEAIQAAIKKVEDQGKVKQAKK
UniProt P09496: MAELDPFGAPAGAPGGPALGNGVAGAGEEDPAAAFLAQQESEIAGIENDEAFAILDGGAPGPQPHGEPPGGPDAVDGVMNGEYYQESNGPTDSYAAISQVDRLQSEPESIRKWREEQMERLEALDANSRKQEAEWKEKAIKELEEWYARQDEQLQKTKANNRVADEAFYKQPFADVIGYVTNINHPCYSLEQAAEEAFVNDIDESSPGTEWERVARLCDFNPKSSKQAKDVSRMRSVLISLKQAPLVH
UniProt P07199: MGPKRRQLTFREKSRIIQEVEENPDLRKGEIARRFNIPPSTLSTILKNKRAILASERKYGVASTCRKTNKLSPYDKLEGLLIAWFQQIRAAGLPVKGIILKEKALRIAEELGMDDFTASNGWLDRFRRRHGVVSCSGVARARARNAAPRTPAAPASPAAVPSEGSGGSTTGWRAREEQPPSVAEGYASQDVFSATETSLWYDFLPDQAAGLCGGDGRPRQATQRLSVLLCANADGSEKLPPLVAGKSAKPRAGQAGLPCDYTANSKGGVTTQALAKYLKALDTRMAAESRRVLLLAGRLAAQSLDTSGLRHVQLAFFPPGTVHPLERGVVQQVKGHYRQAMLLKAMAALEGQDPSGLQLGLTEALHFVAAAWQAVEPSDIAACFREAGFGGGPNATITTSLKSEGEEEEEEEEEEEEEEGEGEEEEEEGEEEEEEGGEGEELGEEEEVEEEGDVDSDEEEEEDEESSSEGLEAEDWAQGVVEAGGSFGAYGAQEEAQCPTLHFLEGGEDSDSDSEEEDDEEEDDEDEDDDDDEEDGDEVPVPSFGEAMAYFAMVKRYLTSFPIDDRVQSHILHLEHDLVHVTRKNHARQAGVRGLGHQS
UniProt P0CAP2, whole entry: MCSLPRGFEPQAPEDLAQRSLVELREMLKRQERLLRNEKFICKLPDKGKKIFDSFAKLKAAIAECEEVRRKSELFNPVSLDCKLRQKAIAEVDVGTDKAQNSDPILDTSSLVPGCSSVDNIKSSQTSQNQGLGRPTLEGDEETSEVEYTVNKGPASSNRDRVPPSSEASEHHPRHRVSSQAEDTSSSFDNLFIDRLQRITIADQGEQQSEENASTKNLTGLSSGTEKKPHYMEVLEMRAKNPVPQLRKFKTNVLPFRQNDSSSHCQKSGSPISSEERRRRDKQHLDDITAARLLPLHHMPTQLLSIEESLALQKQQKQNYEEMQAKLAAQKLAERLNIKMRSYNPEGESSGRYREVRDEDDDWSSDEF

The other results are listed elsewhere or left out. Most entries show no effect beyond the scatter of the controls.

Compound in the assay: Cc1nc(Nc2ncc(C(=O)Nc3c(C)cccc3Cl)s2)cc(N2CCN(CCO)CC2)n1 [dasatinib]
Description: log2 fold change of tryptic peptide abundance, ligand vs vehicle (limited proteolysis) (log2 ratio); higher = more trypsin-susceptible (destabilized). The settings on record: ligand concentration: 5 uM; sample: K562 cleared lysate.
In the case of “CNP (peptide sequence: EKNQWQLSADDLK, peptide start residue: 163) (UniProt P09543)”, the log2 fold change is -0.187.

Turning to “UniProt P0C7P4 (peptide sequence: DPQHDLDR, peptide start residue: 197)”, the log2 fold change is -0.0411.

Consider “TFPI (peptide sequence: IAYEEIFVK, peptide start residue: 294) (UniProt P10646)”, for which the log2 fold change is -0.0676.

Regarding “BPGM (peptide sequence: KVEDQGKVK, peptide start residue: 247) (UniProt P07738)”, the log2 fold change is 0.215.

Turning to “CLTA (peptide sequence: QEAEWKEK, peptide start residue: 131) (UniProt P09496)”, the log2 fold change is -0.326.

For the target “CENPB (peptide sequence: HGVVSCSGVAR, peptide start residue: 130) (UniProt P07199)”, the log2 fold change was 0.165.

As for “POLR2M (peptide sequence: FICKLPDKGK, peptide start residue: 40) (UniProt P0CAP2)”, the log2 fold change is -0.421.
